Measurements reported in PubChem BioAssay AID1259405 (NCATS, 2018).

Aim: 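Knock-downs that lift recombinant protein yield in hamster ovary cells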 (primary screen)
Cell system: Chinese hamster CHO-K1 ovary cells with stable secreted eGFP expression
Knock-down reagent: single siRNA against mouse genes, 0.8 pmol siRNA per well (2 µl of 400 nM stock)
Time to read-out: 3 days
Measurement: 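Percent of the per-plate non-targeting control median for intracellular GFP per well by laser scanning cytometry and for cell viability by ATP luminescence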
Direction: GFP, % of control: higher = more GFP per well, higher productivity; viability (ATP), % of control: higher = more viable cells (more ATP)
Rule for the call: 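a knock-down is called active if GFP reaches 120% or more of non-targeting control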
The deposit covers about 50,000 reagents; shown is an unselected part. About 4,000 of all reagents (8%) were called active. 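Mouse siRNA library applied to hamster cells; one well for each siRNA.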 Entries without a mark were called inactive. The numbers tell different reagents against one gene apart.

For Slf2 (SMC5-SMC6 complex localization factor 2) #1, what was measured?
GFP, % of control: 63.9; viability (ATP), % of control: 34.5

What is on record for Slf2 (SMC5-SMC6 complex localization factor 2) #2?
GFP, % of control: 107; viability (ATP), % of control: 103

With Slf2 (SMC5-SMC6 complex localization factor 2) #3, how do the results read?
GFP, % of control: 113; viability (ATP), % of control: 123

Which result is listed for Dstn (destrin) #1?
GFP, % of control: 50.6; viability (ATP), % of control: 63

What is on record for Dstn (destrin) #2?
GFP, % of control: 88.3; viability (ATP), % of control: 88.6

How did the screen score Dstn (destrin) #3?
GFP, % of control: 79.7; viability (ATP), % of control: 71

How did the screen score Or10a48 (olfactory receptor family 10 subfamily A member 48) #1?
GFP, % of control: 24.5; viability (ATP), % of control: 22.4

How did the screen score Or10a48 (olfactory receptor family 10 subfamily A member 48) #2?
GFP, % of control: 110; viability (ATP), % of control: 118

Which result is listed for Or10a48 (olfactory receptor family 10 subfamily A member 48) #3?
GFP, % of control: 52.2; viability (ATP), % of control: 56.1

How did the screen score Ptges (prostaglandin E synthase) #1?
GFP, % of control: 65.9; viability (ATP), % of control: 69.7

What did the screen give for Ptges (prostaglandin E synthase) #2?
GFP, % of control: 89; viability (ATP), % of control: 91.5

For Atm (ataxia telangiectasia mutated), what was measured?
GFP, % of control: 128 (active); viability (ATP), % of control: 94.6

What is on record for Zfp30 (zinc finger protein 30) #1?
GFP, % of control: 59.1; viability (ATP), % of control: 72.3

What is on record for Zfp30 (zinc finger protein 30) #2?
GFP, % of control: 67.2; viability (ATP), % of control: 75.3

For Zfp30 (zinc finger protein 30) #3, what was measured?
GFP, % of control: 127 (active); viability (ATP), % of control: 57

How did the screen score Dpys (dihydropyrimidinase) #1?
GFP, % of control: 132 (active); viability (ATP), % of control: 122

How did the screen score Dpys (dihydropyrimidinase) #2?
GFP, % of control: 84.3; viability (ATP), % of control: 61.2

What did the screen give for Dpys (dihydropyrimidinase) #3?
GFP, % of control: 70; viability (ATP), % of control: 90.6

With Ly6a (lymphocyte antigen 6 family member A) #1, what was measured?
GFP, % of control: 70.7; viability (ATP), % of control: 63.5

For Ly6a (lymphocyte antigen 6 family member A) #2, how do the results read?
GFP, % of control: 108; viability (ATP), % of control: 81.4

With Ly6a (lymphocyte antigen 6 family member A) #3, how do the results read?
GFP, % of control: 126 (active); viability (ATP), % of control: 74

Sorted by “GFP, % of control” (descending): some entries from above
Or10a48 (olfactory receptor family 10 subfamily A member 48) #2 → GFP, % of control = 110; viability (ATP), % of control = 118
Dstn (destrin) #2 → GFP, % of control = 88.3; viability (ATP), % of control = 88.6
Dstn (destrin) #3 → GFP, % of control = 79.7; viability (ATP), % of control = 71
Ptges (prostaglandin E synthase) #1 → GFP, % of control = 65.9; viability (ATP), % of control = 69.7
Or10a48 (olfactory receptor family 10 subfamily A member 48) #3 → GFP, % of control = 52.2; viability (ATP), % of control = 56.1
Or10a48 (olfactory receptor family 10 subfamily A member 48) #1 → GFP, % of control = 24.5; viability (ATP), % of control = 22.4

Additional records follow:
What did the screen give for Npy (neuropeptide Y) #1?
GFP, % of control: 66.4; viability (ATP), % of control: 62.3

What is on record for Npy (neuropeptide Y) #2?
GFP, % of control: 140 (active); viability (ATP), % of control: 111

What is on record for Npy (neuropeptide Y) #3?
GFP, % of control: 70.7; viability (ATP), % of control: 68.1

For Mug1 (murinoglobulin 1) #1, how do the results read?
GFP, % of control: 131 (active); viability (ATP), % of control: 101

What is on record for Mug1 (murinoglobulin 1) #2?
GFP, % of control: 65.9; viability (ATP), % of control: 60.2

With Mug1 (murinoglobulin 1) #3, what was measured?
GFP, % of control: 105; viability (ATP), % of control: 98.6

For Slc60a1 #1, how do the results read?
GFP, % of control: 71.8; viability (ATP), % of control: 58.4

With Slc60a1 #2, what was measured?
GFP, % of control: 131 (active); viability (ATP), % of control: 52.1

For Slc60a1 #3, how do the results read?
GFP, % of control: 140 (active); viability (ATP), % of control: 124

With Hacd1 (3-hydroxyacyl-CoA dehydratase 1) #1, what does the deposit list?
GFP, % of control: 119; viability (ATP), % of control: 64.4

What is on record for Hacd1 (3-hydroxyacyl-CoA dehydratase 1) #2?
GFP, % of control: 81; viability (ATP), % of control: 60.3

How did the screen score Or1f12 (olfactory receptor family 1 subfamily F member 12) #1?
GFP, % of control: 54.1; viability (ATP), % of control: 53.2

How did the screen score Or1f12 (olfactory receptor family 1 subfamily F member 12) #2?
GFP, % of control: 42.6; viability (ATP), % of control: 40.6

What is on record for Or1f12 (olfactory receptor family 1 subfamily F member 12) #3?
GFP, % of control: 69.4; viability (ATP), % of control: 65.4

How did the screen score Gabrg1 (gamma-aminobutyric acid type A receptor subunit gamma 1) #1?
GFP, % of control: 45.7; viability (ATP), % of control: 64.3

What did the screen give for Gabrg1 (gamma-aminobutyric acid type A receptor subunit gamma 1) #2?
GFP, % of control: 45.8; viability (ATP), % of control: 45.7

With Gabrg1 (gamma-aminobutyric acid type A receptor subunit gamma 1) #3, what does the deposit list?
GFP, % of control: 43.8; viability (ATP), % of control: 49

With Klk1b11 (kallikrein 1-related peptidase b11) #1, what does the deposit list?
GFP, % of control: 79.8; viability (ATP), % of control: 54.3

For Klk1b11 (kallikrein 1-related peptidase b11) #2, what was measured?
GFP, % of control: 80.2; viability (ATP), % of control: 55.9

For Klk1b11 (kallikrein 1-related peptidase b11) #3, what was measured?
GFP, % of control: 61.5; viability (ATP), % of control: 48.9
